Measured values published in publication PMC10724393, “FOXA2 Suppression by TRIM36 Exerts Anti‐Tumor Role in Colorectal Cancer Via Inducing NRF2/GPX4‐Regulated Ferroptosis” (Advanced Science, 2023).
No constants are given. Whether binding was seen depends on the method and setting. Binding seen in cells or lysates may run through a third protein. Some binding calls cover weakened binding; strength is not graded here. For some assays here: Tags and fused reporters may be left off the sequences shown. One block for each binder: values may come before it.

Columns and labels:
[1] = target: T1, Flag-tagged FOXA2 (human) (UniProt Q9Y261); experiment: co-IP; HEK293T cells transfected with Flag-tagged FOXA2 and HA-tagged TRIM36; lysates in IP buffer, antibodies and Protein G agarose beads, 4 °C overnight; blots with anti-Flag and anti-HA
T1 sequence: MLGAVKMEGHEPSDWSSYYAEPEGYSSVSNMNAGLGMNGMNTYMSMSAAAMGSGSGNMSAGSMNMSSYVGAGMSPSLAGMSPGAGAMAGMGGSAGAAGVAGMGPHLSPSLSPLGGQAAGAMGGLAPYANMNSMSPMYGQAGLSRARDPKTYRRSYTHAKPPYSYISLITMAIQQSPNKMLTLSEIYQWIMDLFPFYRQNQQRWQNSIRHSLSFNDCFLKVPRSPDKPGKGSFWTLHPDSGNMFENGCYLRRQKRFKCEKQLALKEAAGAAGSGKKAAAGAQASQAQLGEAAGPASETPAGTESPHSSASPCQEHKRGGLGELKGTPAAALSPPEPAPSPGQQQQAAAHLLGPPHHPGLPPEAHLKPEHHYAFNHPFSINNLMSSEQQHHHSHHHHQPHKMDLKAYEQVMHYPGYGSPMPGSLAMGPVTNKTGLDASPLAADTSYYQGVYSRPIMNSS

[2] = target: T2, FOXA2 in colon cancer cells (HCT-116 and SW480) (human) (UniProt Q9Y261); experiment: co-IP; colon cancer cells (HCT-116 and SW480), Figure S9A,B; lysates in IP buffer, antibodies and Protein G agarose beads, 4 °C overnight
T2 sequence: T1 sequence

binding [1]: binds
B1: HA-tagged TRIM36 (protein, UniProt Q9NQ86 1-728)
chain: MSESGEMSEFGYIMELIAKGKVTIKNIERELICPACKELFTHPLILPCQHSICHKCVKELLLTLDDSFNDVGSDNSNQSSPRLRLPSPSMDKIDRINRPGWKRNSLTPRTTVFPCPGCEHDVDLGERGINGLFRNFTLETIVERYRQAARAATAIMCDLCKPPPQESTKSCMDCSASYCNECFKIHHPWGTIKAQHEYVGPTTNFRPKILMCPEHETERINMYCELCRRPVCHLCKLGGNHANHRVTTMSSAYKTLKEKLSKDIDYLIGKESQVKSQISELNLLMKETECNGERAKEEAITHFEKLFEVLEERKSSVLKAIDSSKKLRLDKFQTQMEEYQGLLENNGLVGYAQEVLKETDQSCFVQTAKQLHLRIQKATESLKSFRPAAQTSFEDYVVNTSKQTELLGELSFFSSGIDVPEINEEQSKVYNNALINWHHPEKDKADSYVLEYRKINRDDEMSWNEIEVCGTSKIIQDLENSSTYAFRVRAYKGSICSPCSRELILHTPPAPVFSFLFDEKCGYNNEHLLLNLKRDRVESRAGFNLLLAAERIQVGYYTSLDYIIGDTGITKGKHFWAFRVEPYSYLVKVGVASSDKLQEWLRSPRDAVSPRYEQDSGHDSGSEDACFDSSQPFTLVTIGMQKFFIPKSPTSSNEPENRVLPMPTSIGIFLDCDKGKVDFYDMDQMKCLYERQVDCSHTLYPAFALMGSGGIQLEEPITAKYLEYQEDM

binding [2]: binds
B2: TRIM36 in colon cancer cells (HCT-116 and SW480) (protein, UniProt Q9NQ86 1-728)
chain: B1 chain
